Results are given in words; binding and its absence hold for the method and conditions named.
Molecular target: recombinant human PRAME region 161-415 (human) (UniProt P78395)
Assay: SEC; analytical gel filtration, BIOSEP S-2000 column, 25 mM phosphate buffer pH 7.5, 150 mM NaCl, 1.0 mL/min; fraction recovered after urea removal; both purified

Amino acid sequences for entries named in this document (tags omitted). Residues count along the entry.
UniProt P78395, residues 161-415: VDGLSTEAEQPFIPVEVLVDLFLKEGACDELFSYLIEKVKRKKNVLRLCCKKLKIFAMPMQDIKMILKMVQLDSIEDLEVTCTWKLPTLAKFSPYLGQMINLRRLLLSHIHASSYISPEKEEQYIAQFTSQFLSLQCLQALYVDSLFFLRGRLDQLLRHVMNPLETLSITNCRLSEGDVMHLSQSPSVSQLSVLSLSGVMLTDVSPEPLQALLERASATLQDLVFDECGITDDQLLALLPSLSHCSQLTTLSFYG

**Q.** For “recombinant human PRAME region 161-415 (from UniProt P78395 161-415) (domain or fragment)”, which binding is on record?
**A.** no binding
